No constants are given. Whether binding was seen depends on the method and setting. Some entries that bind do so weakly or less than the wild type.
What follows are binders tested against GST-ERβ (human) (UniProt Q92731) (assay: fourth round selectants of ERβ panning as MBP fusions, ELISA on ERβ with and without estradiol).

Amino acid sequences for entries named in this document (tags omitted). Residues count along the entry.
UniProt Q92731, residues 248-530: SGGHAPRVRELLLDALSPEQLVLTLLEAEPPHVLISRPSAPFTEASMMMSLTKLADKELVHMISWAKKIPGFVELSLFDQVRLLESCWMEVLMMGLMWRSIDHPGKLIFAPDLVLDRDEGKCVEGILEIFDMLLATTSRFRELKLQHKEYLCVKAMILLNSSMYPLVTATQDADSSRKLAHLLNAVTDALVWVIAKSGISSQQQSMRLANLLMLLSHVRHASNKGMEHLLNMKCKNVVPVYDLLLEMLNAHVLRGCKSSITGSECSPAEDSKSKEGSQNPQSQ

binding, binds:
LLLKLLQRNP (peptide, not shown: large carriers) [SEQ ID NO 32]
NLLMRYLMAKSDGVS (peptide, not shown: large carriers) [SEQ ID NO 33]
GRGLLLELLTRGDNA (peptide, not shown: large carriers) [SEQ ID NO 34]
GSLLESLLRSRDG (peptide, not shown: large carriers) [SEQ ID NO 35]
ERLPGRLLWRMLMER (peptide, not shown: large carriers) [SEQ ID NO 36]
ESVLLRLLRMDATRV (peptide, not shown: large carriers) [SEQ ID NO 37]
WGSSLLVTYLTQREM (peptide, not shown: large carriers) [SEQ ID NO 38]
QMGGPLLWAYLIGPL (peptide, not shown: large carriers) [SEQ ID NO 39]
GTGGSMLLWYLSKDH (peptide, not shown: large carriers) [SEQ ID NO 40]
LCSTRPLLYRLLLSKGCNW (peptide, not shown: large carriers) [SEQ ID NO 23]
KDSRAHLLRDVLVMKSE (peptide, not shown: large carriers) [SEQ ID NO 24]
GSKHGVLLRHLLRRVEESR (peptide, not shown: large carriers) [SEQ ID NO 25]
LRGRQPMLRGLLCRSEVRR (peptide, not shown: large carriers) [SEQ ID NO 26]
ESCHRSLLHSLLLT (peptide, not shown: large carriers) [SEQ ID NO 27]
DTRMTILLRLLTNQS (peptide, not shown: large carriers) [SEQ ID NO 28]
GPQTSLLWKMLAER (peptide, not shown: large carriers) [SEQ ID NO 29]
ECSSWLLHYLRSRDS (peptide, not shown: large carriers) [SEQ ID NO 30]
SILLNLLTRKDHQWRN (peptide, not shown: large carriers) [SEQ ID NO 31]
